# In patent publication US20220242863A1, “COMPOUNDS FOR TREATMENT OF EYE DISORDERS” (SINOPSEE THERAPEUTICS, priority 2019, published 2022):
# Some results were stated once for a whole list of compounds, not compound by compound.
# Test system: BA/F3 cells expressing PDGFR
# Assay: Cell viability by MTS assay (MTS Assay 1)
# Type: cell-based
# Conditions: FIGS. 2 and 3; Ba/F3 cells expressing PDGFR (Examples 1 to 4) or FIt3 (Examples 5 to 7)
# Protocol: The effect of the compounds on cell viability were determined using MTS assay. MTS Cell Proliferation Assay Kit is a colorimetric method for sensitive quantification of viable cells in proliferation and cytotoxicity assay. The method is based on the reduction of MTS tetrazolium compound by viable cells to generate a colored formazan product that is soluble in cell culture media. BA/F3 cells expressing the receptor tyrosine kinase (either PDGFR [MTS Assay 1] or FIt3 [MTS Assay 2]) were cultured in standard culture conditions in a 96-well microtiter plate (final volume of 200 μl/well) in the absence or presence of the compound to be tested and were incubated for 20-48 hrs. MTS Reagent (20 μl/well) was added into each well & incubated for 0.5-4 hours at 37° C. in standard culture conditions. Absorbance at 490 nm was recorded using a plate reader.
# Results are shown in FIGS. 2 and 3 and Table 2 (where IC50 indicates the concentration of compound required to reduce cell viability to 50%).
# For the MTS Assay, the result indicates the concentration of compound required to reduce cell viability to 50%.
smiles,measurement,value
Cn1nc(NC(=O)COc2ccc(-c3cnc4cnccn34)c(F)n2)cc1C(F)(F)F [Example 6],Anti-tumour activity in MTS cell viability assay,potent anti-tumour activity
Cc1ccc(NC(=O)COc2ccc(-c3cnc4cnccn34)c(F)n2)cc1C(F)(F)F [Example 7],Anti-tumour activity in MTS cell viability assay,potent anti-tumour activity
